One experiment concerns the target His-labeled MET-ECD (UniProt P08581). Description: SPR (Biacore 3000), HGF injected over His-labeled MET-ECD on an NTA chip. (In SPR one partner is held on a chip, and binding of the other changes the refractive index at the surface.)
In experiment [1] the target is MET-extracellular domain-Fc fusion protein (product of R&D systems) (UniProt P08581). Description: flow cytometry of MET-Fc on protein G beads incubated with rising fluorescein-HGF. (In general: Flow cytometry measures light scatter and fluorescence of single cells or particles in a stream.)

Amino acid sequences for entries named in this document (tags omitted). A change or cut given only in a name is not applied to a line headed by its entry. Residues count along the entry.
UniProt P08581, residues 25-932: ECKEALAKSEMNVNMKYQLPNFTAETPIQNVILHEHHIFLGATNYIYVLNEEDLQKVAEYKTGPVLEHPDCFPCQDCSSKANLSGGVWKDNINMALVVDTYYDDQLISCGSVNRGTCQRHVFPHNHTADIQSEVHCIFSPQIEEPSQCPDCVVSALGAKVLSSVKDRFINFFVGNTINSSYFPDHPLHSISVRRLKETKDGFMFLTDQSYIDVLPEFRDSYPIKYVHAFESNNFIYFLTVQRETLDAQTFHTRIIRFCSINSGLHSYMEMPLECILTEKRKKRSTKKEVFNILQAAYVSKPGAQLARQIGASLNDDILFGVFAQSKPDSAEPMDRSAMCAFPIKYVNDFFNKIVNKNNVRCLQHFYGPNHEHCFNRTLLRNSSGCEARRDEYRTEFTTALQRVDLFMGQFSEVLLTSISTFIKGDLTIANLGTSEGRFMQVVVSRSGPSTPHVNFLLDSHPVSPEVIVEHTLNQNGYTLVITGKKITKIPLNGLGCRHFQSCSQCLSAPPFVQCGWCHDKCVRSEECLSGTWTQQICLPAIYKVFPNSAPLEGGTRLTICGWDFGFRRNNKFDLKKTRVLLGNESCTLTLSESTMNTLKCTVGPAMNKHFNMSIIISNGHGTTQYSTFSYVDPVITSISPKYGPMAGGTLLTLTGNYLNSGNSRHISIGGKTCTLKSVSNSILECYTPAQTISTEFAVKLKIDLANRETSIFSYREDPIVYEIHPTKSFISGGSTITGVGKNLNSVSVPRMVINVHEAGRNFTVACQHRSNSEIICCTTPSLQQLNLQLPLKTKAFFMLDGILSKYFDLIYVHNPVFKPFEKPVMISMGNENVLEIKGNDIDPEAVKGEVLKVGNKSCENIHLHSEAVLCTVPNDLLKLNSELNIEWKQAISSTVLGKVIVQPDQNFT
UniProt P14210: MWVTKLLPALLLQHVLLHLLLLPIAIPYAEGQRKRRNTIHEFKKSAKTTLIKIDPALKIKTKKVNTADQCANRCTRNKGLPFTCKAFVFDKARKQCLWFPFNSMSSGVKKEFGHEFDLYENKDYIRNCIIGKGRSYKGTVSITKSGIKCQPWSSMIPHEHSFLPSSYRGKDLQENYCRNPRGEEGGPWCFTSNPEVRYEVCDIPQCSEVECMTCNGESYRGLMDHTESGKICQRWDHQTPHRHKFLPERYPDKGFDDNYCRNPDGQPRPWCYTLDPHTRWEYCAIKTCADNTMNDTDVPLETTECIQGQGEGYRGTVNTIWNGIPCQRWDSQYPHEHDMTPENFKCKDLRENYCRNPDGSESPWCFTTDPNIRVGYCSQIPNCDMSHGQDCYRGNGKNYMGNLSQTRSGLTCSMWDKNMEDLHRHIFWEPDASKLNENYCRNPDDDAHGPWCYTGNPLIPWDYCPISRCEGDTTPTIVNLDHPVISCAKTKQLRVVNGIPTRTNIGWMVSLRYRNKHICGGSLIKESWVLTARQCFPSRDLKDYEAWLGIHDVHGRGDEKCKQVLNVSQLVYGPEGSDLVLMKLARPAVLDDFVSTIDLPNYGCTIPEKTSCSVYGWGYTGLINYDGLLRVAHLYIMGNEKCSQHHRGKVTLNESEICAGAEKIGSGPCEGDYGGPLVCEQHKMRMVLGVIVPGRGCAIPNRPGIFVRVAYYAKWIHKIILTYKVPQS

Results are given in words; binding and its absence hold for the method and conditions named. Some entries that bind do so weakly or less than the wild type.

For “human hepatocyte growth factor (HGF), recombinant full-length, active two-chain form (from UniProt P14210 32-728) (ligand)”, the binding result in the experiment with His-labeled MET-ECD is “binds”.
In the case of “fluorescein-HGF (from UniProt P14210 32-728) (ligand)”, the binding result in experiment [1] is reported as “binds”.
